Test results taken from the supplement of paper PMC12067093, “Discovery and optimisation of a covalent ligand for TRIM25 and its application to targeted protein ubiquitination” (Chemical Science, 2025).
Some of the results follow.

By UniProt entry, the sequences of proteins in these tests, tags left out. Where a name states a change or a piece, a line headed by the entry shows the natural chain unless it says otherwise.
UniProt Q9BS26: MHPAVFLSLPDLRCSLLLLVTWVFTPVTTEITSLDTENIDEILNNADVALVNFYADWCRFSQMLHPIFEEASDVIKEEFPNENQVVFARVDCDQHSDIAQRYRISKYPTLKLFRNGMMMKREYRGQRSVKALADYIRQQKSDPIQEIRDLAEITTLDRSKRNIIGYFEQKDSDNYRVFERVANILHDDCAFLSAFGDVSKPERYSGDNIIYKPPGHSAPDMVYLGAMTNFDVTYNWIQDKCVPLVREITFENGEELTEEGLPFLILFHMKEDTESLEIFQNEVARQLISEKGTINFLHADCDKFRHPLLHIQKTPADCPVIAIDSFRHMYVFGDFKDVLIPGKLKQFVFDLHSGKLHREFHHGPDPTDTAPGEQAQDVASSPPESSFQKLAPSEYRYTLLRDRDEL
UniProt P38117: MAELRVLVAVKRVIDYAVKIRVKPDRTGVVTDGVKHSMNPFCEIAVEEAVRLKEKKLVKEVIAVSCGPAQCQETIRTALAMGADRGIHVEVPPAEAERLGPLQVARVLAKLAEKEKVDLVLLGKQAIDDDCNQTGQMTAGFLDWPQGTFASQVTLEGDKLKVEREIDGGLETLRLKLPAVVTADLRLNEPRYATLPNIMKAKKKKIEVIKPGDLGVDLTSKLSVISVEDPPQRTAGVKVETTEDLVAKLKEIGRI
UniProt Q96DZ1: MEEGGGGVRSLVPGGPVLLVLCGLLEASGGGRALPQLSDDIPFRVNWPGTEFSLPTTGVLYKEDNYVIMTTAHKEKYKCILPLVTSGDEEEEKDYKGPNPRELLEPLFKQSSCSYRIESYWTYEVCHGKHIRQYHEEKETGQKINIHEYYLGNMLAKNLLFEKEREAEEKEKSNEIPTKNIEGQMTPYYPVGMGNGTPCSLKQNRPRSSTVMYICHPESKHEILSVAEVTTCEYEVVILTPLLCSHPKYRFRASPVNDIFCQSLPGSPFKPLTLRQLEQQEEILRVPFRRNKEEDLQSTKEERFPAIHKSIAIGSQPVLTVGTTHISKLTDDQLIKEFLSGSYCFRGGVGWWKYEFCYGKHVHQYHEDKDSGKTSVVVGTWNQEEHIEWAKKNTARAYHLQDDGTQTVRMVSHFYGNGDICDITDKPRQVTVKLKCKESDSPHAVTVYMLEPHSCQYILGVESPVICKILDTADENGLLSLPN
UniProt Q9BSJ8: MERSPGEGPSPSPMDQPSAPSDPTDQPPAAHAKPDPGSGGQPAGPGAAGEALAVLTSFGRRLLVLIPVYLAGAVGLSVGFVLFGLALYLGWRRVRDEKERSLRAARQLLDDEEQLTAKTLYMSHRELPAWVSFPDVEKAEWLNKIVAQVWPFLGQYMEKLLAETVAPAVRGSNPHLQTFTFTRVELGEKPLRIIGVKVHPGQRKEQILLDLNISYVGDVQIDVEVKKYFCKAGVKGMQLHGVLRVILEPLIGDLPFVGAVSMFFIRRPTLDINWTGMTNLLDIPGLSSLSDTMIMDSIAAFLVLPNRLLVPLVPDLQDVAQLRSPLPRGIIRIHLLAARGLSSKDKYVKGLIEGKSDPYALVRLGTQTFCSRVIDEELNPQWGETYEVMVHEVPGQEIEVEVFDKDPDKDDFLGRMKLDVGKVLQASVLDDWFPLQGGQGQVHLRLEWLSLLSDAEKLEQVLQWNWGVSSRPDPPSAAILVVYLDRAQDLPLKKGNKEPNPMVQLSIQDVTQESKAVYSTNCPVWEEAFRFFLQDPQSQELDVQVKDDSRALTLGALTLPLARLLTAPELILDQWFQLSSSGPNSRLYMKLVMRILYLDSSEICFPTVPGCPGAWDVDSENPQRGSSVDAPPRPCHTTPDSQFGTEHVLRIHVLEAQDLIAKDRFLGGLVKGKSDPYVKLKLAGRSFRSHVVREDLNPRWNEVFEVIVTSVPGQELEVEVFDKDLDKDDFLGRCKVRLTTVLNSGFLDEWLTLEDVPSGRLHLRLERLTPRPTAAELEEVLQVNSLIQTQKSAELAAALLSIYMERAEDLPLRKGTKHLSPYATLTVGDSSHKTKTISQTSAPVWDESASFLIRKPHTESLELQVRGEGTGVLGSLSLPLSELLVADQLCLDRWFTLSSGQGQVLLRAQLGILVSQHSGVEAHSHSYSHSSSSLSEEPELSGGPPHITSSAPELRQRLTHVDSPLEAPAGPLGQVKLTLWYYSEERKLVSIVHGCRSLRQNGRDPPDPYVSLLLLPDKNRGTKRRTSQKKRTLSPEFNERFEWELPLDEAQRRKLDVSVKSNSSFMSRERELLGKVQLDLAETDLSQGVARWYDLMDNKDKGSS
UniProt Q9BZQ8: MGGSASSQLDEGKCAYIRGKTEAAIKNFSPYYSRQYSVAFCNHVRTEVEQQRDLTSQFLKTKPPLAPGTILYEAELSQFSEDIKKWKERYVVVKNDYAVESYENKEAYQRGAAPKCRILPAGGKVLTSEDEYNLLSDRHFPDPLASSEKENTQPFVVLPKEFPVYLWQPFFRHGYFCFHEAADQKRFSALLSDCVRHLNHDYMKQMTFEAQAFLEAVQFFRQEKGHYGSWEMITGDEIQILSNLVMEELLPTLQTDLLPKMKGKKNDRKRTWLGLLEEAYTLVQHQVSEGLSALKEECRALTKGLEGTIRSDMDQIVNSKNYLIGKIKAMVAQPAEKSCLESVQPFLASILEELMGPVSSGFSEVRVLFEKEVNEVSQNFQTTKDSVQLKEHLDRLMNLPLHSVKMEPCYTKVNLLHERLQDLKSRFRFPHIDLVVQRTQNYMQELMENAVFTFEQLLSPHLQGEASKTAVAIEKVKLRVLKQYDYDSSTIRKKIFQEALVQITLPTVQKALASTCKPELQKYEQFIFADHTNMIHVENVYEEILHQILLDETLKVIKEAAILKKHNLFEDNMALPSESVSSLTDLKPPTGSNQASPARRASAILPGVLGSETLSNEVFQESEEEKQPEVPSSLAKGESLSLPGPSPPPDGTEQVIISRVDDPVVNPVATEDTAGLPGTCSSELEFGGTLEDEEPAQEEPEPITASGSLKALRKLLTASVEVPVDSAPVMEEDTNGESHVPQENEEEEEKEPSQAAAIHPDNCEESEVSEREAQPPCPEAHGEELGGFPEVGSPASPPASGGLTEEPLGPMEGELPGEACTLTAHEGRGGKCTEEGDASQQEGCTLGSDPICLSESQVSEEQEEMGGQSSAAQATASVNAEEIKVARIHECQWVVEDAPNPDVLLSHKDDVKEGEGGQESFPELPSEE
UniProt Q13158: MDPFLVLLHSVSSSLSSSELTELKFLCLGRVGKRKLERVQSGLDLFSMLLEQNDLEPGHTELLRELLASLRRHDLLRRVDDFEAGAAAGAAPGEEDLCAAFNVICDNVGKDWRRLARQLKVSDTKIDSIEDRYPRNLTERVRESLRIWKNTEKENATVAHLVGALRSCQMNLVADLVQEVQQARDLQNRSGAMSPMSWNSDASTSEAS
UniProt Q2NKX8: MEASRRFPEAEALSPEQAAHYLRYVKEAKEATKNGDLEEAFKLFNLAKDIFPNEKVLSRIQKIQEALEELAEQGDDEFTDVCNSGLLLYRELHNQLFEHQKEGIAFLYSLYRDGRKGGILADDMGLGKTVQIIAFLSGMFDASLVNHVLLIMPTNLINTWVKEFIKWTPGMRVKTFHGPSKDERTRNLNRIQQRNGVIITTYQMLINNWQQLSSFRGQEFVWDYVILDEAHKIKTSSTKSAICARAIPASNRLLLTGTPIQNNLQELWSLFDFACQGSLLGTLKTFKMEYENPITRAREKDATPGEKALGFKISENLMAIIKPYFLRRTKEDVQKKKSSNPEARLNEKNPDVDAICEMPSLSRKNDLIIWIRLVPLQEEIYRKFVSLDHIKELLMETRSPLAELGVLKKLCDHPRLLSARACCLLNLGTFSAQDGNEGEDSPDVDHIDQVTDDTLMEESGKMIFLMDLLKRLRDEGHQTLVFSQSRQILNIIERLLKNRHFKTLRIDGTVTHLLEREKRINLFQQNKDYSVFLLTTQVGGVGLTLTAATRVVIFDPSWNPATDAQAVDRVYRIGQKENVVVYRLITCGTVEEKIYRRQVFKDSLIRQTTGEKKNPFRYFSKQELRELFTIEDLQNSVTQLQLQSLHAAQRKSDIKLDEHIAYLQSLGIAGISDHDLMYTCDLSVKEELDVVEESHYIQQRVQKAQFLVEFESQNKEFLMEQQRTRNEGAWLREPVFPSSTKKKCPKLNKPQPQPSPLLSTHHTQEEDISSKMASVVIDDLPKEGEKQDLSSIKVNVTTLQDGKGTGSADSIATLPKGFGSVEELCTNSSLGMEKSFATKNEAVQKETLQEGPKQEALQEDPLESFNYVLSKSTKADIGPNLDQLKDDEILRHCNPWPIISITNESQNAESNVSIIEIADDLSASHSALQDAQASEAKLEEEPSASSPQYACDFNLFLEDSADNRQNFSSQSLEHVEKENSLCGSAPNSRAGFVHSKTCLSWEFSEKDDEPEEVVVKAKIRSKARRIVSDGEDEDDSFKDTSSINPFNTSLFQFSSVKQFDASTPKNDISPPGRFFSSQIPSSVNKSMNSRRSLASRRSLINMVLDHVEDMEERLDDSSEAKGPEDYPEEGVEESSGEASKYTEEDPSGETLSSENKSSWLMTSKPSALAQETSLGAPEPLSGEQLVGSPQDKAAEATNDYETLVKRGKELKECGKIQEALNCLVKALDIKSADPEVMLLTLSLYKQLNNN
UniProt Q7Z2K6: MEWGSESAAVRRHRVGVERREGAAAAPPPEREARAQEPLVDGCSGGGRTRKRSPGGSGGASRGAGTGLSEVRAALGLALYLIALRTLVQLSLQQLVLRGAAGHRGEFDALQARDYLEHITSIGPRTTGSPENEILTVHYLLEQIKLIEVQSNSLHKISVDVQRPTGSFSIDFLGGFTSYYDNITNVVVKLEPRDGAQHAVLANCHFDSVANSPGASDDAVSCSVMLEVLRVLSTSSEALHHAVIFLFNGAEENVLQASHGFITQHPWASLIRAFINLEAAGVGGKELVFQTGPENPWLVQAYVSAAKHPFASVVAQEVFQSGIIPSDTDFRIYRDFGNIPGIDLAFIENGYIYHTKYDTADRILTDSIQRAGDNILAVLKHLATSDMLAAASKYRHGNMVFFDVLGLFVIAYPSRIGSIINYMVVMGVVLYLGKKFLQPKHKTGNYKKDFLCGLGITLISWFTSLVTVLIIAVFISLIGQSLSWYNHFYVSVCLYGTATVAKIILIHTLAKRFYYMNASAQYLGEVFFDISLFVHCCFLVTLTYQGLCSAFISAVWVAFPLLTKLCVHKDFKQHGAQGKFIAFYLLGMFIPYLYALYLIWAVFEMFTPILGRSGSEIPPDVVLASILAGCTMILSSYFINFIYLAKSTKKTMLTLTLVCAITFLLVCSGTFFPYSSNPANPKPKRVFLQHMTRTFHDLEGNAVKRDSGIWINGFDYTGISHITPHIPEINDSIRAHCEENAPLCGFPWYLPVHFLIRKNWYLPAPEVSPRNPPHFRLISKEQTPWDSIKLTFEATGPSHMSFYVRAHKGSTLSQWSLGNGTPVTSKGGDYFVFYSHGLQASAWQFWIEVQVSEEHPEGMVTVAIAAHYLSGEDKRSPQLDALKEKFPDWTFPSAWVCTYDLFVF
UniProt Q5T8I3: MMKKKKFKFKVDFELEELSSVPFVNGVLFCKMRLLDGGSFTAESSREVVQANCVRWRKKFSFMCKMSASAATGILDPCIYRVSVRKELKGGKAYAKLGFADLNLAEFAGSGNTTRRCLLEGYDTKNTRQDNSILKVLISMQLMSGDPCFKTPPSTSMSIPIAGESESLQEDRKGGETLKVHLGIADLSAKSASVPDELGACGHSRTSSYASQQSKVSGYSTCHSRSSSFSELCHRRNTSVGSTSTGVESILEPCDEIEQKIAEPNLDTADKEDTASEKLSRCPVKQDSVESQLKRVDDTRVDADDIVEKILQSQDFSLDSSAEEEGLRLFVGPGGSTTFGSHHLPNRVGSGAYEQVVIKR
UniProt Q01469, whole entry, looked up: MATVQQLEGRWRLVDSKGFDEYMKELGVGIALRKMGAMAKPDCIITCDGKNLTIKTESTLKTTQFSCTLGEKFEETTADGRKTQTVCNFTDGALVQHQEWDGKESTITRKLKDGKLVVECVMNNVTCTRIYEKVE
UniProt Q9BYI3: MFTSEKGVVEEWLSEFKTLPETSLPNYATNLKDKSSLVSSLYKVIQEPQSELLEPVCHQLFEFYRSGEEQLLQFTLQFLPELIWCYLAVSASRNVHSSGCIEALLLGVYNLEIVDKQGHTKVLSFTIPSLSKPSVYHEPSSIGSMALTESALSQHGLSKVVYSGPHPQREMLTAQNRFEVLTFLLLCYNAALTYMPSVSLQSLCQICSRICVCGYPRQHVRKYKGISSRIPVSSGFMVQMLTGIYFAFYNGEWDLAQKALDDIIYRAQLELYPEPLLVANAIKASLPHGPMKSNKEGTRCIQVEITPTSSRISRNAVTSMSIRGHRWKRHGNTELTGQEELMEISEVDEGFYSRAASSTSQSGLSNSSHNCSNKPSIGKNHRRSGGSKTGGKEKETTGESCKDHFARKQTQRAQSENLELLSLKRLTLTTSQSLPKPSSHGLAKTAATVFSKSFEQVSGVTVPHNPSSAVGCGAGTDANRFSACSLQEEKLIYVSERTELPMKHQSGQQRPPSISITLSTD

Compound: Cc1cc(ccc1-c1ccccc1)C(=O)N1CCCN(CC1)C(=O)CCl [compound 10]
Experiment: probe-labelled cysteine peptide fold change vs DMSO (competition) (log2 fold change); higher = less target engagement (more negative = stronger competition)
Details: THP-1, incubation time: 4 h
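Note: competitive profiling in live THP-1 cells: cysteine peptides tagged with an iodoacetamide desthiobiotin (IA-DTB) probe, intensity after compound treatment relative to DMSO-treated cells.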

| Target | probe-labelled cysteine peptide fold change (10 µM) | probe-labelled cysteine peptide fold change (50 µM) |
| --- | --- | --- |
| ERP44_Q9BS26_92_VDCDQHSDIAQR (UniProt Q9BS26) | 0.0139 | 0.419 |
| ETFB_P38117_66_EVIAVSCGPAQCQETIR (UniProt P38117) | -0.0523 | -0.0417 |
| ERLEC1_Q96DZ1_126_IESYWTYEVCHGK (UniProt Q96DZ1) | 0.192 | 0.0829 |
| ESYT1_Q9BSJ8_522_AVYSTNCPVWEEAFR (UniProt Q9BSJ8) | 0.00976 | 0.117 |
| EXOC2_Q96KP1_388_WILQLMHSCK (UniProt Q96KP1) | -0.223 | 0.36 |
| FAM129A_Q9BZQ8_177_HGYFCFHEAADQK (UniProt Q9BZQ8) | -0.0119 | 0.136 |
| EXOSC9_Q06265_61_VLGQVSCELVSPK (UniProt Q06265) | 0.171 | 0.0301 |
| ETNK1_Q9HBU6_307+313_EILSNLGSPVVLCHNDLLCK (UniProt Q9HBU6) | -0.0872 | -0.271 |
| EXOSC7_Q15024_189_VLEDEEGSKDIELSDDPYDCIR (UniProt Q15024) | 0.0352 | -0.579 |
| FADD_Q13158_168_SCQMNLVADLVQEVQQAR (UniProt Q13158) | -0.313 | -0.17 |
| FADS1_O60427_407_VAPLVQSLCAK (UniProt O60427) | 0.0874 | -0.188 |
| FAM120A_Q9NZB2_669_SPQTPELVEALAFREWTCPNLK (UniProt Q9NZB2) | -0.244 | -0.568 |
| FAM111B_Q6SJ93_212_LCIYALK (UniProt Q6SJ93) | 0.0556 | -0.298 |
| FAM129B_Q96TA1_194_HCNNGIPEDSK (UniProt Q96TA1) | -0.0068 | 0.21 |
| FAH_P16930_315_GEGMSQAATICK (UniProt P16930) | 0.0705 | 0.12 |
| FAM129A_Q9BZQ8_194_FSALLSDCVR (UniProt Q9BZQ8) | 0.00902 | 0.0738 |
| FAF2_Q96CS3_349_KLECLPPEPSPDDPESVK (UniProt Q96CS3) | -0.0728 | 0.0455 |
| EXOSC2_Q13868_259_MMLYDTSILYCYEASLPHQIK (UniProt Q13868) | 0.341 | 0.254 |
| FAM118A_Q9NWS6_113_TGDAKPSFFQDCLMEVFDDLEQHIR (UniProt Q9NWS6) | 0.174 | -0.519 |
| FAM114A2_Q9NRY5_438_EFTTCLTTAGVK (UniProt Q9NRY5) | 0.19 | 0.0888 |
| ERH_P84090_28_TYADYESVNECMEGVCK (UniProt P84090) | 0.162 | 0.083 |

Laid out differently: entries from further up
Target,probe-labelled cysteine peptide fold change (10 µM),probe-labelled cysteine peptide fold change (50 µM)
FADD_Q13158_168_SCQMNLVADLVQEVQQAR (UniProt Q13158),-0.313,-0.17
FADS1_O60427_407_VAPLVQSLCAK (UniProt O60427),0.0874,-0.188
FAM120A_Q9NZB2_669_SPQTPELVEALAFREWTCPNLK (UniProt Q9NZB2),-0.244,-0.568
FAM111B_Q6SJ93_212_LCIYALK (UniProt Q6SJ93),0.0556,-0.298

(list continues)

| Target | probe-labelled cysteine peptide fold change (10 µM) | probe-labelled cysteine peptide fold change (50 µM) |
| --- | --- | --- |
| EZH2_Q15910_324_NTETALDNKPCGPQCYQHLEGAK (UniProt Q15910) | 0.251 | -0.196 |
| ERCC4_Q92889_723_GIDIEPVTLEVGDYILTPEMCVER (UniProt Q92889) | 0.0379 | -0.0411 |
| ERF_P50548_492_WSEDCR (UniProt P50548) | -0.154 | 0.0174 |
| EZH2_Q15910_286_EQSLHSFHTLFCR (UniProt Q15910) | 0.036 | 0.0157 |
| ETHE1_O95571_34_QMFEPVSCTFTYLLGDR (UniProt O95571) | 0.0825 | 0.52 |
| EZH2_Q15910_260_ELTEQQLPGALPPECTPNIDGPNAK (UniProt Q15910) | -0.164 | 0.256 |
| ERCC6L_Q2NKX8_356_NPDVDAICEMPSLSR (UniProt Q2NKX8) | -0.442 | -0.352 |
| ERMP1_Q7Z2K6_737_AHCEENAPLCGFPWYLPVHFLIR (UniProt Q7Z2K6) | -0.0124 | 0.222 |
| ETFDH_Q16134_387_LTFPGGLLIGCSPGFMNVPK (UniProt Q16134) | -0.209 | -0.0769 |
| EXOSC10_Q01780_288_PQPQLYRPIEETPCHFISSLDELVELNEK (UniProt Q01780) | 0.177 | 0.318 |
| EXOC6B_Q9Y2D4_32_EIESTDTACIGPTLR (UniProt Q9Y2D4) | -0.179 | -0.097 |
| ETFB_P38117_66+71_EVIAVSCGPAQCQETIR (UniProt P38117) | 0.0324 | -0.188 |
| ERO1A_Q96HE7_104_PCQSDEVPDGIK (UniProt Q96HE7) | -0.264 | 0.0155 |
| EXOC6_Q8TAG9_561_KPHIGLTELVQIIINTTHLEQACK (UniProt Q8TAG9) | 0.0168 | 0.367 |
| ERMP1_Q7Z2K6_43_AQEPLVDGCSGGGR (UniProt Q7Z2K6) | -0.232 | -0.171 |
| FAM120B_Q96EK7_18_GLQGFVGSTCPHICTVVNFK (UniProt Q96EK7) | 0.197 | -0.191 |
| EXOC5_O00471_542_TLNCMIGQMK (UniProt O00471) | -0.0135 | 0.00507 |
| ETF1_P62495_302_YCFGVEDTLK (UniProt P62495) | 0.229 | 0.192 |
| ESD_P10768_56_CPALYWLSGLTCTEQNFISK (UniProt P10768) | 0.193 | 0.105 |
| ERP44_Q9BS26_301_GTINFLHADCDK (UniProt Q9BS26) | -0.0708 | 0.0373 |
| EXOC8_Q8IYI6_211_VHGFLMNDCLLVATWLPQR (UniProt Q8IYI6) | -0.132 | 0.0731 |

| Target | probe-labelled cysteine peptide fold change (10 µM) | probe-labelled cysteine peptide fold change (50 µM) |
| --- | --- | --- |
| FAM102B_Q5T8I3_222_VSGYSTCHSR (UniProt Q5T8I3) | -0.179 | -0.188 |
| ERLIN1_O75477_128_IHHELNQFCSAHTLQEVYIELFDQIDENLK (UniProt O75477) | 0.195 | 0.249 |
| EXOC7_Q9UPT5_367_HGPLAGRDDMLDVETDAYIHCVSAFVK (UniProt Q9UPT5) | -0.0432 | -0.2 |
| FAIM_Q9NVQ4_149_KLETAGEFVDDGTETHFSIGNHDCYIK (UniProt Q9NVQ4) | 0.045 | 0.0106 |
| EXOSC6_Q5RKV6_117_APPGGCEER (UniProt Q5RKV6) | -0.34 | 0.392 |
| FAM129A_Q9BZQ8_194_RFSALLSDCVR (UniProt Q9BZQ8) | -0.127 | 0.0111 |
| EXOSC2_Q13868_191_THFHDLPCGASVILGNNGFIWIYPTPEHKEEEAGGFIANLEPVSLADR (UniProt Q13868) | 0.188 | 0.0801 |
| FAM102B_Q5T8I3_64_FSFMCK (UniProt Q5T8I3) | 0.0594 | 0.126 |
| ERCC6L_Q2NKX8_1222_IQEALNCLVK (UniProt Q2NKX8) | 0.134 | -0.0872 |
| EXOC1_Q9NV70_304+314_GIEACTNAADALLQCMNVALRPGHDLLLAVK (UniProt Q9NV70) | 0.159 | 0.0647 |
| EURL_Q9NYK6_112_DLDSDSECSK (UniProt Q9NYK6) | -0.23 | -0.887 |
| EXOC5_O00471_517_LSECLQK (UniProt O00471) | -0.113 | -0.144 |
| FABP5_Q01469_43_MGAMAKPDCIITCDGK (UniProt Q01469) | -0.103 | -0.36 |
| ESCO2_Q56NI9_182_ENNCHSAENNSNAPR (UniProt Q56NI9) | 0.25 | 0.479 |
| ETF1_P62495_127_KVNIDFEPFKPINTSLYLCDNK (UniProt P62495) | 0.155 | -0.0188 |
| EXOC7_Q9UPT5_667_GFNDGLEELCK (UniProt Q9UPT5) | -0.0815 | 0.085 |
| ERGIC3_Q9Y282_182_NPDTIEQCR (UniProt Q9Y282) | -0.124 | 0.064 |
| FAM120B_Q96EK7_523_QEDSMCTHAEINQK (UniProt Q96EK7) | -0.129 | -0.0552 |
| F8A3_P23610_110_LVCPAAYGEPLQAAASALGAAVR (UniProt P23610) | -0.0254 | 0.113 |
| FAM126A_Q9BYI3_401_ETTGESCK (UniProt Q9BYI3) | -0.493 | -1.16 |
| EXOC4_Q96A65_54_CDRDLDELIVQHYTELTTAIR (UniProt Q96A65) | -0.124 | -0.108 |

| Target | probe-labelled cysteine peptide fold change (10 µM) | probe-labelled cysteine peptide fold change (50 µM) |
| --- | --- | --- |
| EZH2_Q15910_503_LWAAHCR (UniProt Q15910) | -0.194 | -0.482 |
| ERLEC1_Q96DZ1_113_QSSCSYR (UniProt Q96DZ1) | -0.0664 | 0.18 |
| F2_P00734_391_KSPQELLCGASLISDR (UniProt P00734) | -0.34 | -0.399 |
| ETFA_P13804_109_QFNYTHICAGASAFGK (UniProt P13804) | -0.00826 | -0.0627 |
| FAM120A_Q9NZB2_531_GSQMGTVQPIPCLLSMPTR (UniProt Q9NZB2) | -0.418 | -0.472 |
| FAM120A_Q9NZB2_192_ENGFHGLVAYDSDYALCNIPYYFSAHALK (UniProt Q9NZB2) | 0.0489 | 0.151 |
| FAM120C_Q9NX05_745_AFLACMK (UniProt Q9NX05) | -0.0917 | -0.151 |
| FAM120B_Q96EK7_700_RLDTLLACFNLSSSR (UniProt Q96EK7) | 0.0425 | 0.00481 |
| EVI5_O60447_479_LSEAESQCALK (UniProt O60447) | -0.223 | -0.131 |
| FAM129A_Q9BZQ8_763_EPSQAAAIHPDNCEESEVSER (UniProt Q9BZQ8) | -0.306 | 0.415 |
| ESYT1_Q9BSJ8_995_KLVSIVHGCR (UniProt Q9BSJ8) | -0.124 | 0.0558 |
| FAM120B_Q96EK7_416_QEVPMCTGPEAR (UniProt Q96EK7) | -0.508 | -0.442 |
| EVI5L_Q96CN4_342_VIPHQFDSCPDK (UniProt Q96CN4) | -0.213 | -0.55 |
| ERLIN2_O94905_262_AKADAECYTAMK (UniProt O94905) | -0.125 | -0.183 |
| EVL_Q9UI08-2_9_ATSEQSICQAR (UniProt Q9UI08) | 0.289 | 0.341 |
| FAM126A_Q9BYI3_300_CIQVEITPTSSR (UniProt Q9BYI3) | 0.144 | -0.281 |
| FABP5_Q01469_120_LVVECVMNNVTCTR (UniProt Q01469) | -0.132 | -0.796 |
| EXOSC9_Q06265_9_MKETPLSNCER (UniProt Q06265) | -0.239 | -0.611 |
| EXT2_Q93063_657_CPECTAIDGLSLDQTHMVER (UniProt Q93063) | -0.000977 | 0.0481 |
| ETV6_P41212_452_TDRLEHLESQELDEQIYQEDEC (UniProt P41212) | -0.294 | 0.00988 |
